Chains of the proteins cited; added tags and fusions are not shown. Lines headed by an entry give the natural chain unless they say otherwise; changes in a name come on top.
UniProt Q96KN1: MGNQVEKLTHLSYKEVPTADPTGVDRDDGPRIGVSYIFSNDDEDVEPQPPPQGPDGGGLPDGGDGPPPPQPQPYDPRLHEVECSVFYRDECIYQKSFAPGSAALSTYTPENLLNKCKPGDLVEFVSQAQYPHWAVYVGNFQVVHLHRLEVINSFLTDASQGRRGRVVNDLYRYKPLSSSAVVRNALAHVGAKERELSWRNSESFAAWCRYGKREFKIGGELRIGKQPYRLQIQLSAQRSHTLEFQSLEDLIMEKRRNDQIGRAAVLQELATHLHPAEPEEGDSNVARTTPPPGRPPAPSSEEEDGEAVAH

In paper PMC9925821:

How the values were obtained:
[1] = target: T1, FKBP51 (canonical isoform) (human (endogenous in A375)) (UniProt Q13451); test: co-IP; endogenous FKBP51 and FKBP51s immunoprecipitated from two glioblastoma cell lines (Fig. S2d), immunoblot for PHLPP
T1 sequence: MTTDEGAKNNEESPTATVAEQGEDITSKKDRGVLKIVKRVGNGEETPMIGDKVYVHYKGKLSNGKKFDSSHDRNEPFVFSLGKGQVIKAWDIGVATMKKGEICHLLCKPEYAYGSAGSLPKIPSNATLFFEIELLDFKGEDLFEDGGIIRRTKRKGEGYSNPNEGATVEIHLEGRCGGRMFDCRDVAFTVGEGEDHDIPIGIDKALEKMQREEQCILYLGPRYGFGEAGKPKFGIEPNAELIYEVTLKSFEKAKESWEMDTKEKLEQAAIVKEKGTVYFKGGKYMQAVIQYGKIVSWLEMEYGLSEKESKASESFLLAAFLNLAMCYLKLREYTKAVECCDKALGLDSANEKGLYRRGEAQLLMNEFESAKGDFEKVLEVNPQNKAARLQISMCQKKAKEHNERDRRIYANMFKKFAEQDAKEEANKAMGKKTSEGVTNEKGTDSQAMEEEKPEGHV

[2] = target: T2, FKBP51s (spliced FKBP51 isoform) (human (endogenous in A375)) (UniProt Q13451); test: as above
T2 sequence: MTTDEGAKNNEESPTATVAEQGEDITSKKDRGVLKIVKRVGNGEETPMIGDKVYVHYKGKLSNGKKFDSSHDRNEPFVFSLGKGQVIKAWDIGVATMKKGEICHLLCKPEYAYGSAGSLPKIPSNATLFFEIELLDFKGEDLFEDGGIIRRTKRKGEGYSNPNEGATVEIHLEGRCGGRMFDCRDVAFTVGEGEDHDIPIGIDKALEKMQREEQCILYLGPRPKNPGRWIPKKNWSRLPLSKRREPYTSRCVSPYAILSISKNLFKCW

[3] = target: T3, Flag-FKBP51 (True-ORF-Myc-DDK (Flag)-tagged human FKBP51-transcript variant 1) (human) (UniProt Q13451); test: co-IP; A375 cells transfected with Flag-tagged FKBP51 forms (with or without HA-PHLPP, HA-K63-Ub, siPHLPP RNAs), immunoprecipitated with anti-Flag antibody, IgG or empty vector as control, immunoblot
T3 sequence: T1 sequence

[4] = target: T4, Flag-tagged FKBP51-TPRmut (K352A/R356A) (human) (UniProt Q13451); test: as above
T4 sequence: T1 sequence with K352A, R356A

[5] = target: T1, FKBP51 (canonical isoform) (human (endogenous in A375)); test: co-IP; endogenous FKBP51 or FKBP51s immunoprecipitated from A375 whole lysates (modified RIPA buffer) with anti-FKBP51 or anti-FKBP51s antibody, Protein-A/G agarose, IgG as control, immunoblot; in some panels cells treated with 0.5 and 1 µM 17-AAG for 16 h
[6] = target: T2, FKBP51s (spliced FKBP51 isoform) (human (endogenous in A375)); test: as above

Row | Substance | binding [1] | binding [2] | binding [3] | binding [4] | binding [5] | binding [6]
1 | PH domain leucine-rich repeat protein phosphatase (PHLPP) (human (endogenous in A375)) | binds | no binding | binds | binds | binds | no binding
2 | NSE2 (from UniProt Q96KN1) | – | – | binds | – | – | –

Residue numbers refer to the chain shown, from its start. No constants are given. Whether binding was seen depends on the method and setting. Binding seen in cells or lysates may run through a third protein. For some of these results: Binding can be weak; no strength is given. For some of these results: Where a sequence is shown, tags or fusion partners need not be part of it.
